PubChem BioAssay AID1259254 – NCATS – 2017

Purpose: 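Gene knock-downs that lead to re-replication, shown by excess G2 DNA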 (primary screen)
System: human HCT116 colorectal cancer cells
Knock-down reagent: single siRNA against human genes
Duration: 3 days
Measurement: 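Imaged Hoechst DNA stain sorts each cell into a cycle phase by DNA amount; per plate, G2 fraction set to 0% for non-targeting and 100% for GMNN siRNA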
Reading the numbers: G2 robust z-score: higher = more G2 cells, more excess DNA replication
Hit rule: 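An siRNA counts as active if its G2 robust z-score lies at least 5 MADs above the screen median; here such calls match roughly 38% of GMNN control or more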
The deposit covers about 59,000 reagents; this is an unselected part. Over the whole deposit, about 1,550 (2.6%) got an active call. 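G2 share is only a proxy for re-replication; each gene was hit by three separate siRNAs, and active genes were retested.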 The numbers tell different reagents against one gene apart. Further read-outs or replicates are left out here. Not given: the amount of reagent.

The opening 3 entries, to show the layout:
HYDIN (HYDIN axonemal central pair apparatus protein) #1
- G2 robust z-score: 0.55
- Outcome: inactive

HYDIN (HYDIN axonemal central pair apparatus protein) #2
- G2 robust z-score: 1.98
- Outcome: inactive

HYDIN (HYDIN axonemal central pair apparatus protein) #3
- G2 robust z-score: 0.294
- Outcome: inactive

Results, from the first entry:
HYDIN (HYDIN axonemal central pair apparatus protein) #1
- G2 robust z-score: 0.55
- Outcome: inactive

HYDIN (HYDIN axonemal central pair apparatus protein) #2
- G2 robust z-score: 1.98
- Outcome: inactive

HYDIN (HYDIN axonemal central pair apparatus protein) #3
- G2 robust z-score: 0.294
- Outcome: inactive

LDAF1 (lipid droplet assembly factor 1) #1
- G2 robust z-score: 3.43
- Outcome: inactive

LDAF1 (lipid droplet assembly factor 1) #2
- G2 robust z-score: -0.51
- Outcome: inactive

LDAF1 (lipid droplet assembly factor 1) #3
- G2 robust z-score: -0.577
- Outcome: inactive

CNTFR (ciliary neurotrophic factor receptor) #1
- G2 robust z-score: 7.61
- Outcome: active

CNTFR (ciliary neurotrophic factor receptor) #2
- G2 robust z-score: -1.35
- Outcome: inactive

CNTFR (ciliary neurotrophic factor receptor) #3
- G2 robust z-score: -1.02
- Outcome: inactive

MAGEB2 (MAGE family member B2) #1
- G2 robust z-score: -0.866
- Outcome: inactive

MAGEB2 (MAGE family member B2) #2
- G2 robust z-score: 0.163
- Outcome: inactive

MAGEB2 (MAGE family member B2) #3
- G2 robust z-score: -0.506
- Outcome: inactive

TRIM48 (tripartite motif containing 48) #1
- G2 robust z-score: -0.604
- Outcome: inactive

TRIM48 (tripartite motif containing 48) #2
- G2 robust z-score: 0.0331
- Outcome: inactive

TRIM48 (tripartite motif containing 48) #3
- G2 robust z-score: 0.529
- Outcome: inactive

SAMHD1 #1
- G2 robust z-score: -0.388
- Outcome: inactive

SAMHD1 #2
- G2 robust z-score: 0.218
- Outcome: inactive

SAMHD1 #3
- G2 robust z-score: 0.39
- Outcome: inactive

ZNF524 (zinc finger protein 524) #1
- G2 robust z-score: 1.09
- Outcome: inactive

ZNF524 (zinc finger protein 524) #2
- G2 robust z-score: -0.815
- Outcome: inactive

ZNF524 (zinc finger protein 524) #3
- G2 robust z-score: 0.0168
- Outcome: inactive

PHPT1 (phosphohistidine phosphatase 1) #1
- G2 robust z-score: 4.13
- Outcome: inactive

PHPT1 (phosphohistidine phosphatase 1) #2
- G2 robust z-score: 1.52
- Outcome: inactive

PHPT1 (phosphohistidine phosphatase 1) #3
- G2 robust z-score: -0.594
- Outcome: inactive
